Assay: Storage stability of capsules in closed HDPE bottles at 40° C. and 75% relative humidity for 6 months: drug content and drug-related impurities
Type: physicochemical
Details: Example 3 capsule
Description: Capsules prepared above are stored in closed high-density polyethylene (HDPE) bottles at 40° C. and 75% relative humidity for 6 months, and are analyzed for drug content and the levels of drug-related impurity formation.
Capsules prepared above are stored in closed HDPE bottles at 40° C. and 75% relative humidity for 6 months, and are analyzed for drug content and the levels of drug-related impurities.

CC(C)NCC(O)COc1ccc(CC(N)=O)cc1 (stereo not drawn) [Atenolol]
Impurity: Blocker acid (6 Months, 40° C./75% RH): 0.04 % of label content | Impurity: DIOL (6 Months, 40° C./75% RH): 0.108 % of label content | Impurity: Diacetyl (6 Months, 40° C./75% RH): 0.007 % of label content | Impurity: N-Monoacetyl (6 Months, 40° C./75% RH): 0.002 % of label content | Impurity: PHPA (6 Months, 40° C./75% RH): 0.047 % of label content | Impurity: Tertiary amine (6 Months, 40° C./75% RH): 0.029 % of label content | Impurity: Blocker acid (Initial): 0.049 % of label content | Impurity: DIOL (Initial): 0.108 % of label content | Impurity: Diacetyl (Initial): 0.004 % of label content | Impurity: N-Monoacetyl (Initial): 0.001 % of label content | Impurity: PHPA (Initial): 0.022 % of label content | Impurity: Tertiary amine (Initial): 0.028 % of label content
